Taken from: PubChem BioAssay AID743448 (Peter MacCallum Cancer Centre, 2014)
Shown is a random part of the 106 reagents, under one of the conditions tested. 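Calls are per line and drug panel including etoposide, not vorinostat-specific; gene picks needed hits in two or more extra lines with vorinostat versus etoposide.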 Entries without a mark were called inactive. Not all columns of the deposit are shown. No sequences are given here.

Test: 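Test whether knock-downs sensitising to vorinostat hold across several colon lines but not etoposide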 (follow-up of hits)
Cells: four human colon cancer cell lines: HCT116-VR (vorinostat-resistant HCT116 derivative), SW480, SW620 and LIM1215
Reagent: siRNA pool against human genes, 40 nM siRNA pool
Timing: drug added two days after transfection, read one day later
Conditions: vorinostat 2.5 µM on one half of each plate, etoposide 5 µM on the other half
Cell line and drug panel: SW620 cells with vorinostat
Measured: 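Caspase 3/7 activity by luminescence and live-cell viability by fluorescence, each given as a ratio to mock-transfected wells and as a robust z-score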
Direction: caspase ratio to mock: higher = more caspase activity than mock; viability ratio to mock: higher = more live cells than mock
Hit rule: 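Hit means caspase ratio to mock at least 1.6, or viability ratio to mock at most 0.75; wells with strong death in the absence of drug get no call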
Calls: active = caspase or viability hit in this panel; inactive = no change, or unhealthy well

gene,PubChem SID,caspase ratio to mock,viability ratio to mock
EIF3I (eukaryotic translation initiation factor 3 subunit I),SID135623766,0.72 (active),0.72
UTP3 (UTP3 small subunit processome component),SID134324596,1.44,0.89
LCE2A (late cornified envelope 2A),SID134322845,2.5 (active),1.08
CDK10 (cyclin dependent kinase 10),SID152152801,1.86 (active),1.04
SEMA4F (ssemaphorin 4F),SID152155663,1.56,0.82
POLR2G (RNA polymerase II subunit G),SID134315701,2.13 (active),0.84
TDP2 (tyrosyl-DNA phosphodiesterase 2),SID134321508,1.36 (active),0.66
RNF186 (ring finger protein 186),SID152150401,0.56,0.82
AQR (aquarius intron-binding spliceosomal factor),SID152153754,1.79 (active),0.67
OSBPL6 (oxysterol binding protein like 6),SID134314182,1.23,0.98
"MAGOH (mago homolog, exon junction complex subunit)",SID134315673,1.19,1.04
KIR2DL1,SID135624029,1.34,1.1
EIF1AX (eukaryotic translation initiation factor 1A X-linked),SID135622096,1.17,0.91
POLR2J (RNA polymerase II subunit J),SID152155691,1.46,0.78
CSE1L (chromosome segregation 1 like),SID135620825,1.81 (active),1.14
RWDD2A (RWD domain containing 2A),SID152155993,1.5,0.91
ANO9 (anoctamin 9),SID135624594,0.98,0.82
CCDC59 (coiled-coil domain containing 59),SID152156179,1.36,0.95
MRPL19 (mitochondrial ribosomal protein L19),SID152149113,1.4,1.02
"RBBP8 (RB binding protein 8, endonuclease)",SID134315719,1.73 (active),0.9

In a second layout: 2 of the entries above
gene	PubChem SID	caspase ratio to mock	viability ratio to mock
RWDD2A (RWD domain containing 2A)	SID152155993	1.5	0.91
ANO9 (anoctamin 9)	SID135624594	0.98	0.82
